For one substance, binding results are on record in patent publication US20240299505A1, “COMPOSITION FOR IMPROVING, PREVENTING OR TREATING INFLAMMATORY BOWEL DISEASE COMPRISING NAMPT-DERIVED PEPTIDE AS ACTIVE INGREDIENT” (Industry-University Cooperation Foundation Hanyang …, priority 2023, published 2024).

Protein sequences, listed by entry. Tags and fused reporters are not part of them. Lines headed by an entry give the natural chain unless they say otherwise; changes in a name come on top. Residues count along the entry.
UniProt Q9QUK6, residues 26-835: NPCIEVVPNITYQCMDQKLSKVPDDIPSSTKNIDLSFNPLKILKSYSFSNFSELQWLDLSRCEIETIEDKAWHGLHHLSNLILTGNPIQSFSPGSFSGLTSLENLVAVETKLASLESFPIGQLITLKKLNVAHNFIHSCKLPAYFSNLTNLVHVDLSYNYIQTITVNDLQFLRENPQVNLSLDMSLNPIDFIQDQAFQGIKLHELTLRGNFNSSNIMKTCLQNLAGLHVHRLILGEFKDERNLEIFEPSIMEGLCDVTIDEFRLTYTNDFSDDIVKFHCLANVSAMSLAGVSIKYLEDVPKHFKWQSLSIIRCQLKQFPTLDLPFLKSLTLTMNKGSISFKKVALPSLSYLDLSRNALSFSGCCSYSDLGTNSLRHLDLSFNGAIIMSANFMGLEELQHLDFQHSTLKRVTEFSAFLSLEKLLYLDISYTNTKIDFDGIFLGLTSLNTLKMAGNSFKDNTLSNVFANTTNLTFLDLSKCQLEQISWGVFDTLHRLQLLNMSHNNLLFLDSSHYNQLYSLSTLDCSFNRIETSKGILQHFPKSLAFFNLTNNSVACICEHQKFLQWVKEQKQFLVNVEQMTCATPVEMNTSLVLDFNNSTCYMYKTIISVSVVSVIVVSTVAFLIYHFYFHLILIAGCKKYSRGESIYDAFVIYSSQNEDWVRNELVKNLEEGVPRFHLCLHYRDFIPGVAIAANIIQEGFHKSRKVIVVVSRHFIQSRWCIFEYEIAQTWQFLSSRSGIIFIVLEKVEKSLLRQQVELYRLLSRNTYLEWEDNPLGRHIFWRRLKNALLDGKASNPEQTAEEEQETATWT
UniProt P43490: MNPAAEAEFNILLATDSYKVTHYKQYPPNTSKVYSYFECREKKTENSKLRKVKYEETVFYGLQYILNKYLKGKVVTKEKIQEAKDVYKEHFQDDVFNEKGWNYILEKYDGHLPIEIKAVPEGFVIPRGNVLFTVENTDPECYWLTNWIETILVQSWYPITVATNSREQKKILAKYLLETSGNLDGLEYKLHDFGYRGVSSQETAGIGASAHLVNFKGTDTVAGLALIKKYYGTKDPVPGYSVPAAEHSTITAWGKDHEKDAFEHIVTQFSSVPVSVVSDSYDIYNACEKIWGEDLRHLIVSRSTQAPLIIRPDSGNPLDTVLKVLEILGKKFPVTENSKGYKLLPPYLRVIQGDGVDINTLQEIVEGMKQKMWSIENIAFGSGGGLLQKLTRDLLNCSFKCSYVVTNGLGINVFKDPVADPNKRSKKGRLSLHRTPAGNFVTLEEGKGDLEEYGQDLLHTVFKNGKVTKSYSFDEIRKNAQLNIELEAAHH

Assay [1] addresses T1, endogenous CYBB of mouse macrophages (BMDMs) and mouse colon (mouse) (UniProt Q61093).
T1 sequence (looked up): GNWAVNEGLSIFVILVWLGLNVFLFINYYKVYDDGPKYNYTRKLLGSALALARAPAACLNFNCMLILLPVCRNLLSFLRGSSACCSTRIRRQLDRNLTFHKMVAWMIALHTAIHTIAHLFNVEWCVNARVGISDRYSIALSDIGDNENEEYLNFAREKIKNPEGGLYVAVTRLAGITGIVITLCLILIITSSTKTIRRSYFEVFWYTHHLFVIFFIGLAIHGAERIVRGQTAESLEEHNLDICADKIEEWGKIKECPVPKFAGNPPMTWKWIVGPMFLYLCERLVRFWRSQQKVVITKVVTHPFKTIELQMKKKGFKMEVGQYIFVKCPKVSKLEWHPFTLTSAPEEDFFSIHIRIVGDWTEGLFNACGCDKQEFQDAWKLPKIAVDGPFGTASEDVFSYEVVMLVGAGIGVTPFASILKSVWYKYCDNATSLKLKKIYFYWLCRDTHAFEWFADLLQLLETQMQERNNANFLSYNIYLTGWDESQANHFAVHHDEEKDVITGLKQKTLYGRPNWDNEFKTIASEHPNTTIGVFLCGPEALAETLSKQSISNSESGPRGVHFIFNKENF
In words: co-IP (anti-His) from BMDMs incubated with rNAMPT, anti-CYBB blot.

The target of assay [2] is endogenous TLR4 of mouse macrophages (BMDMs) and mouse colon (mouse) (UniProt Q9QUK6). The assay is described as follows: co-IP (anti-His) from BMDMs incubated with rNAMPT, anti-TLR4 blot.

Results are given in words; binding and its absence hold for the method and conditions named. Binding seen in cells or lysates may run through a third protein. Some binding calls cover weakened binding; strength is not graded here.

“recombinant NAMPT protein (rNAMPT) (from UniProt P43490 1-491) (enzyme)”: the binding entry in assay [1] and in assay [2] was “binds” in each case.
